No constants are given. Whether binding was seen depends on the method and setting.
Target: Bcl-2, entire coding region, yeast two-hybrid bait (UniProt P10415)
Experiment: two-hybrid; pBT3-STE-Bcl-2 (bait) and pPR3-N-MAP4 (prey) co-transformed into yeast strain NMY51; growth selection on DDO, TDO or QDO plates at 30 °C for 3 days

The chains behind the UniProt entries cited, without tags or fusion partners. Where a name states a change or a piece, a line headed by the entry shows the natural chain unless it says otherwise.
UniProt P10415: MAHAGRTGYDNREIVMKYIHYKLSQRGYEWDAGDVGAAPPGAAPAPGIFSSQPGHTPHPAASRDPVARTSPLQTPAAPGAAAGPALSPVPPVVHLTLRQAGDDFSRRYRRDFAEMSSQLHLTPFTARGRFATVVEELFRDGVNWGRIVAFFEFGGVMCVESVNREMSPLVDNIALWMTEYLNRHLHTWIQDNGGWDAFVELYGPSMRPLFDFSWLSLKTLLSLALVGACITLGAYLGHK
UniProt P27546: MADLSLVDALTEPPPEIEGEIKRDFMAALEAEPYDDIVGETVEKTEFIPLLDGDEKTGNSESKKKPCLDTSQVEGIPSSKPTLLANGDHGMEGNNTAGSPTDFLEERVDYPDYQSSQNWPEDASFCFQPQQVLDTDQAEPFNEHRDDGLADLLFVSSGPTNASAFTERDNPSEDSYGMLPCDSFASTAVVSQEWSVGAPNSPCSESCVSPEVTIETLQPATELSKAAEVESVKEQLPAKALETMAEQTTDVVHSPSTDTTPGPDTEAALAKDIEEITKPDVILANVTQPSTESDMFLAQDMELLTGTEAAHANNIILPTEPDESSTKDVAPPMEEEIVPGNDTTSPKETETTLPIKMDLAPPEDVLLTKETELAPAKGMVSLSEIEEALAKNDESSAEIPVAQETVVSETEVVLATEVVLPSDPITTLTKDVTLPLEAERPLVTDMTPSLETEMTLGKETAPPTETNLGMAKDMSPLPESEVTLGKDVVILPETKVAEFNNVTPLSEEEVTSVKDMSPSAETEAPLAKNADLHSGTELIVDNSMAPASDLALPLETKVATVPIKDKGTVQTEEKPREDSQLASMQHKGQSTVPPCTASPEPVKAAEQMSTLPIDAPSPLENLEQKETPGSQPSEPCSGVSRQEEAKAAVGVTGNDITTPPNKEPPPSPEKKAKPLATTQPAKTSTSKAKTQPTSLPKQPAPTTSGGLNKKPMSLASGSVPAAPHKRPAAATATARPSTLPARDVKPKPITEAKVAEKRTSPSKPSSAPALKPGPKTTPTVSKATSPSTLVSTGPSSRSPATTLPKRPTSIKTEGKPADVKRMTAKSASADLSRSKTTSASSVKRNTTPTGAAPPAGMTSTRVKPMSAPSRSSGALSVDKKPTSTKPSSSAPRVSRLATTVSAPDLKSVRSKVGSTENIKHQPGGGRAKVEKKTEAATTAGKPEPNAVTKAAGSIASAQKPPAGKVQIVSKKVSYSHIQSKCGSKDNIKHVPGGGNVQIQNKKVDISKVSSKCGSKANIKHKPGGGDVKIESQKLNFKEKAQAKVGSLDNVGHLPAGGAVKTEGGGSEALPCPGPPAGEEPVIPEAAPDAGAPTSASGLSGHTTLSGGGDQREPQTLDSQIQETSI

For “mutated MAP4 with knocking out L83/G87/D88 (BH3 domain inactivated), yeast two-hybrid prey (from UniProt P27546)”, the binding was “no binding”.

— paper PMC10192331
